Experimental findings from publication PMC6471694 are described below.

By UniProt entry, the sequences of proteins in these tests, tags left out.
UniProt Q8NDV7: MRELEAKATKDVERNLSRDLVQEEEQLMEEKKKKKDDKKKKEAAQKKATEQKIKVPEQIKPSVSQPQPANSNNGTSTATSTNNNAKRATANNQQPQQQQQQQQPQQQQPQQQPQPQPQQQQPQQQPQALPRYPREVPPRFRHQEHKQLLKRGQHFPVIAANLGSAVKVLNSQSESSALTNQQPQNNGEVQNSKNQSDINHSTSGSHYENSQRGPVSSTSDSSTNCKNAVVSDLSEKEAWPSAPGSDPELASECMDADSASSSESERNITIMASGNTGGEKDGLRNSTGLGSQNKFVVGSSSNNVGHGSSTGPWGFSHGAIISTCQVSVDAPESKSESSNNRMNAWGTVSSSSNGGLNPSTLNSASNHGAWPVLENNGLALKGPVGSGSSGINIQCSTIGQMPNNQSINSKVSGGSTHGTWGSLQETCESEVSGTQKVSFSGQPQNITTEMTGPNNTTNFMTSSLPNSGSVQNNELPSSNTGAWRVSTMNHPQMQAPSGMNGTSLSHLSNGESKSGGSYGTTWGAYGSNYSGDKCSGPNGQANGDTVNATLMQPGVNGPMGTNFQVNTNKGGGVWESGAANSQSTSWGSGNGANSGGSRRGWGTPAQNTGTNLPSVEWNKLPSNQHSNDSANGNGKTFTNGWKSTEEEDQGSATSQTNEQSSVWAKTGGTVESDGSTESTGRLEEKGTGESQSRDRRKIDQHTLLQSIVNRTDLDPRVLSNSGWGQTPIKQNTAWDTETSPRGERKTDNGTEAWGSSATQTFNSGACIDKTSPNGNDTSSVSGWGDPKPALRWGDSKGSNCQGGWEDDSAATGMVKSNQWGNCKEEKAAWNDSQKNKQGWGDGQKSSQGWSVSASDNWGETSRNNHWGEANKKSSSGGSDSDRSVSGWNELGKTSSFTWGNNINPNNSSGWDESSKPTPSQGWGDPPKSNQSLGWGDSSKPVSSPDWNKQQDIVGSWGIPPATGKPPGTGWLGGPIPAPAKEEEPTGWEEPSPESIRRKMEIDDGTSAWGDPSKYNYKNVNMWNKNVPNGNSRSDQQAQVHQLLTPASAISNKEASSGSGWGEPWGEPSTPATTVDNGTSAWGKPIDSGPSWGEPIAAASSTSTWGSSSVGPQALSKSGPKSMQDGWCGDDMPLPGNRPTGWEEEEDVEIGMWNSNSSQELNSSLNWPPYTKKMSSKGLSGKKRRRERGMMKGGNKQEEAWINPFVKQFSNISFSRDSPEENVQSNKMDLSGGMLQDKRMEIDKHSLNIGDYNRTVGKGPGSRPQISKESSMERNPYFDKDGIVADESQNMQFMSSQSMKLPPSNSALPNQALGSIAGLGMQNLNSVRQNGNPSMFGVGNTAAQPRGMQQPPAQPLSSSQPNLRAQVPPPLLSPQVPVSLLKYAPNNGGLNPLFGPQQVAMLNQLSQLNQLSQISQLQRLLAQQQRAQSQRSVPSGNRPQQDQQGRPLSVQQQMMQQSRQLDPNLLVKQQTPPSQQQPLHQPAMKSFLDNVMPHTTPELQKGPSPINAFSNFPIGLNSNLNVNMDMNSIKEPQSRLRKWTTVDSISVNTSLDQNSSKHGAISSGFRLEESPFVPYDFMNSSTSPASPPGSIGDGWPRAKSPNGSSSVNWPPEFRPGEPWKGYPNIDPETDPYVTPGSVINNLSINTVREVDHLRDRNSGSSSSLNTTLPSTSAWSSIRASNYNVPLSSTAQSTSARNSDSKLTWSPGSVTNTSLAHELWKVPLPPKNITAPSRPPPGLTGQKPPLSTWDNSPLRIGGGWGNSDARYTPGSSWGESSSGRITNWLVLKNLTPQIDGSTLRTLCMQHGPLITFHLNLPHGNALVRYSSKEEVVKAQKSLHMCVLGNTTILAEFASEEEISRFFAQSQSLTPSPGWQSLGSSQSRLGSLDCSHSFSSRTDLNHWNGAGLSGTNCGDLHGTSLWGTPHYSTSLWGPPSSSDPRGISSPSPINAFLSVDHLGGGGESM
UniProt Q9UKV8: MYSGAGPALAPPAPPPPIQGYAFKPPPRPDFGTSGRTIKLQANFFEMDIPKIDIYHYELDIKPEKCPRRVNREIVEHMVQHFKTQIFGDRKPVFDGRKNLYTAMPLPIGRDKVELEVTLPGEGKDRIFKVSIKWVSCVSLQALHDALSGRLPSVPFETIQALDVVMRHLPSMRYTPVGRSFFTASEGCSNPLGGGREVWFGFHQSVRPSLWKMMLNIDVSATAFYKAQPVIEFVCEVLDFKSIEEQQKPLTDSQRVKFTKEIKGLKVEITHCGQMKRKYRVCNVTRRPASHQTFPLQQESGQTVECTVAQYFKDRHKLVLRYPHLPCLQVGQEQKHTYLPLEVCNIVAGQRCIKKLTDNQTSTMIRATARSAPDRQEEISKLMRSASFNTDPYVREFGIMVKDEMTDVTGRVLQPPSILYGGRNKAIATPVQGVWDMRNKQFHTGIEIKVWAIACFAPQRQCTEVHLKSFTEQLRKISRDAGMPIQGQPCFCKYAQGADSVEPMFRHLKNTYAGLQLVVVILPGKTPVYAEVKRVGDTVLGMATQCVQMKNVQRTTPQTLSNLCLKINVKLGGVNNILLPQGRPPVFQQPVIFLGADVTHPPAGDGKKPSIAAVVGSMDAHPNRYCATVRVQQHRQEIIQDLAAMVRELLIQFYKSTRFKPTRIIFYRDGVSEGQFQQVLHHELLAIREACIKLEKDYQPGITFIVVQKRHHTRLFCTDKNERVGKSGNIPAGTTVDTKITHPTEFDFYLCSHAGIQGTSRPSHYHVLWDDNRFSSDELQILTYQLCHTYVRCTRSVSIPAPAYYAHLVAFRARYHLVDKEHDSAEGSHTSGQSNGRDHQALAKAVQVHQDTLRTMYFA

No constants are given. Whether binding was seen depends on the method and setting. In cells and extracts the contact can be indirect. Some entries that bind do so weakly or less than the wild type.

In assay [1] the target is GW182/TNRC6A (human (endogenous in MCF-7)) (UniProt Q8NDV7). The assay is described as follows: co-IP; endogenous proteins from precleared MCF-7 cytoplasmic lysate; anti-AGO2 or anti-GW182 armed protein A/G-agarose beads (15 ug Ab/mg lysate), overnight at 4 °C, three washes with ice cold wash buffer; Western blot of the IP fraction.
Assay [2] deals with AGO2 (human (endogenous in MCF-7)) (UniProt Q9UKV8). The description is as above.

Consider AGO2 (from UniProt Q9UKV8 1-859), for which the binding result in assay [1] is reported as “binds”. As for “GW182/TNRC6A (from UniProt Q8NDV7 1-1962)”, in assay [2], the binding entry is recorded as “binds”.
